# PubChem BioAssay AID2417 (National Center for Advancing Translational Sciences (NCATS), 2010)
# Out of some 140,000 compounds screened, about 4,300 (3.1%) were called active. The shares of active, inactive and inconclusive entries below differ from those in the screen.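 How the source made its calls: active means readout at or below -70, meaning at least 70% loss of cells showing the perinucleolar compartment, a nuclear body marking cancer cells; inconclusive means readout between -30 and a set limit; inactive means the rest.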
# Assay: High Content Assay for Compounds that inhibit the Assembly of the Perinucleolar Compartment;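 further: plate controls were DMSO wells for no effect and camptothecin positive control wells for full effect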
# Settings: PC3M PTB-GFP, PNC prevalence imaging, 16 h; at 10 µM; active compounds read low
# In short: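 Read-out is percentage of cells bearing a perinucleolar compartment, from automated 20x imaging of fixed, Hoechst-stained PC3M PTB-GFP cells. Cells were seeded 4 h, then exposed 16 h to compound (23 nl of library stock) in duplicate plates.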
row,Compound,"activity change (PNC), negative = inhibition"
1,COC(=O)COc1ccc(S(=O)(=O)NCCC2=CCCCC2)cc1C,inactive: -11.5%
2,O=C(Nn1c(-c2ccccc2)nc2ccccc2c1=O)C1CCC1,inactive: 23.7%
3,Cc1ncc(CO)c2cc(S(=O)(=O)c3ccc(F)cc3)c(=O)oc12,inactive: -27.6%
4,CN(CC(=O)Nc1ccccc1Br)Cc1nc2ccccc2c(=O)[nH]1,inconclusive: -38.3%
5,CC1CCCC2(C1)NC(=S)c1c(sc3c1CCCC3)N2 (configuration not stated),inconclusive: -70.2%
6,Cc1cc(C)c(OCCCCCNCCO)c(C)c1,inconclusive: -30.6%
7,N#Cc1cnn(-c2ncnc3sc(-c4ccccc4)cc23)c1N,inconclusive: -33.4%
8,COC(=O)CCC(=O)Nc1ccc(C)cc1OC(=O)CCC(=O)OC,inconclusive: -35.5%
9,CCN1C(=O)CC(C(=O)Nc2ccc(F)cc2)SC1=Nc1cccc(OC)c1 (configuration not stated),inconclusive: -49.5%
10,COc1cc(/C=N/NC(=O)c2nc(C)cc(C)n2)ccc1O,inconclusive: -56.2%
11,CC1(C)CC(=O)c2sc(NC(=O)CN3CCOCC3)nc2C1,inactive: 15.7%
12,Cc1ccc(CNC(=S)Nc2ccc(OC(F)F)cc2C)cc1,inconclusive: -69.7%
13,COc1ccc2c(c1OC)C(=O)N1c3ccccc3C(=O)N(c3ccccc3)C21 (configuration not stated),inconclusive: -68.7%
14,O=C(Nc1nnc(C2CCCC2)s1)C1CCC1,active: -127%
15,COc1cccc(C(=O)N/N=C(\CC(C)C)c2ccccc2)c1,inconclusive: -41%
16,COc1ccc(-c2ccc(C#N)c(SCC(=O)NCCc3ccccc3)n2)cc1OC,inactive: 6.62%
17,Brc1ccccc1-c1nnc2sc(-c3ccc4c(c3)OCCO4)nn12,inactive: -4.67%
18,COC(=O)c1ccc(C)c(NS(=O)(=O)c2ccc3c(c2)OCCO3)c1,active: -112%
19,COc1ccc(NCC(=O)N/N=C2\CCCC(C)C2)cc1 (configuration not stated),inconclusive: -42.2%
20,O=C(CN1C(=O)CCC1=O)NCC12CC3CC(CC(C3)C1)C2,inactive: 22.3%
21,COc1c(C(=O)Nc2c(C)n(C)n(-c3ccccc3)c2=O)ccc2ccccc12,inconclusive: -41%
22,Cc1csc(NC(=O)c2cccc(C)c2C)n1,inconclusive: -32.2%
23,Cc1ccc(CN2C(=O)CCC2C(=O)NC(C)C)cc1 (configuration not stated),inconclusive: -37.6%
24,CCCc1cc(C(=O)N(C2CCCCC2)C2CCCCC2)no1,inactive: 34%
25,O=C(COC(=O)c1cnccn1)c1ccc(OC(=O)c2ccccc2)cc1,active: -126%
26,NC(=O)c1ccccc1N/C=C/C(=O)c1cccs1,active: -93.8%
27,CCC(=O)Nc1ccc(C(=O)CSc2nnc(-c3ccccc3F)n2CCc2ccccc2)cc1,inactive: 16.5%

# Three entries out of the list, ordered by count of non-hydrogen atoms, descending:
row,Compound,"activity change (PNC), negative = inhibition"
9,CCN1C(=O)CC(C(=O)Nc2ccc(F)cc2)SC1=Nc1cccc(OC)c1 (configuration not stated),inconclusive: -49.5%
3,Cc1ncc(CO)c2cc(S(=O)(=O)c3ccc(F)cc3)c(=O)oc12,inactive: -27.6%
12,Cc1ccc(CNC(=S)Nc2ccc(OC(F)F)cc2C)cc1,inconclusive: -69.7%
